The chains behind the UniProt entries cited, without tags or fusion partners.
UniProt Q16643: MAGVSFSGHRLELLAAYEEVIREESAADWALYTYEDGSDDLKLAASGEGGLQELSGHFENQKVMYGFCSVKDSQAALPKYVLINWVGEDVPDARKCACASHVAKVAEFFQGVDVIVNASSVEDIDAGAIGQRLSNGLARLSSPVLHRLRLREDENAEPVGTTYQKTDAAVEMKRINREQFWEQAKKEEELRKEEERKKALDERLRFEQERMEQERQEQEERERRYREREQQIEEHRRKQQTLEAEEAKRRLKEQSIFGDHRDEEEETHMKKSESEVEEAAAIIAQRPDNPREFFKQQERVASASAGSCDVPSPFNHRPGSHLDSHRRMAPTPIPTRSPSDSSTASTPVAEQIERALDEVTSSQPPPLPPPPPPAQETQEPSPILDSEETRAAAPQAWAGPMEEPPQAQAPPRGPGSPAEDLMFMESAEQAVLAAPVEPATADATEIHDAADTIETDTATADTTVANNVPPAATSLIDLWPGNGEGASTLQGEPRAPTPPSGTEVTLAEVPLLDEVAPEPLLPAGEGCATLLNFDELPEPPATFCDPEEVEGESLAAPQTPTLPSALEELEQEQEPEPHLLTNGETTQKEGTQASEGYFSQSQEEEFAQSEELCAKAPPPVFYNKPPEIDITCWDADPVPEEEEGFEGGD

According to article PMC12339706:

T1: Flag-TRIM59 (UniProt Q8IWR1)
T1 sequence: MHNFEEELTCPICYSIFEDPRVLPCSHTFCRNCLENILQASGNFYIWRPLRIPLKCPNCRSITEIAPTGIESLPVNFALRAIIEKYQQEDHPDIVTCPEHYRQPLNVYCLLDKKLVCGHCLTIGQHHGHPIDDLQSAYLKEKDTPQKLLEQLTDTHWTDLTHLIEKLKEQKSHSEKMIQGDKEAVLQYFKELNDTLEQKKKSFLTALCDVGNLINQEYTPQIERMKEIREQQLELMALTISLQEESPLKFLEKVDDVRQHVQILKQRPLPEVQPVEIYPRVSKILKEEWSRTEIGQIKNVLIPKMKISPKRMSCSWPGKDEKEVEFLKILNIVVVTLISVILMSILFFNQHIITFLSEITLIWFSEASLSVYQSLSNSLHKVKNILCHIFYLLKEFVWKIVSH


What follows are molecules tested against T1, Flag-TRIM59 (assay: affinity purification with mass spectrometry; HEK-293T cells transfected with Flag-TRIM59 or empty vector, MG132 20 uM for 6 h; lysate in IP lysis buffer, anti-Flag antibody at 4 °C overnight, protein A/G magnetic beads, SDS-PAGE, Coomassie, LC/MS).

Molecule | binding
DBN1 (from UniProt Q16643 1-649) | binds
HEL-S-87p (protein, UniProt P04075 1-364) MPYQYPALTPEQKKELSDIAHRIVAPGKGILAADESTGSIAKRLQSIGTENTEENRRFYRQLLLTADDRVNPCIGGVILFHETLYQKADDGRPFPQVIKSKGGVVGIKVDKGVVPLAGTNGETTTQGLDGLSERCAQYKKDGADFAKWRCVLKIGEHTPSALAIMENANVLARYASICQQNGIVPIVEPEILPDGDHDLKRCQYVTEKVLAAVYKALSDHHIYLEGTLLKPNMVTPGHACTQKFSHEEIAMATVTALRRTVPPAVTGITFLSGGQSEEEASINLNAINKCPLLKPWALTFSYGRALQASALKAWGGKKENLKAAQEEYVKRALANSLACQGKYTPSGQAGAAASESLFVSNHAY | binds
ACAT1 (endogenous, found by mass spectrometry) (enzyme, UniProt P24752 34-427) VSKPTLKEVVIVSATRTPIGSFLGSLSLLPATKLGSIAIQGAIEKAGIPKEEVKEAYMGNVLQGGEGQAPTRQAVLGAGLPISTPCTTINKVCASGMKAIMMASQSLMCGHQDVMVAGGMESMSNVPYVMNRGSTPYGGVKLEDLIVKDGLTDVYNKIHMGSCAENTAKKLNIARNEQDAYAINSYTRSKAAWEAGKFGNEVIPVTVTVKGQPDVVVKEDEEYKRVDFSKVPKLKTVFQKENGTVTAANASTLNDGAAALVLMTADAAKRLNVTPLARIVAFADAAVEPIDFPIAPVYAASMVLKDVGLKKEDIAMWEVNEAFSLVVLANIKMLEIDPQKVNINGGAVSLGHPIGMSGARIVGHLTHALKQGEYGLASICNGGGGASAMLIQKL | binds

These are yes or no findings as the source states them, for the method shown. In cells and extracts the contact can be indirect. A yes stands for co-enrichment or nearness to the bait. Other partners may have been found. Where a sequence is shown, tags or fusion partners need not be part of it.
